Results deposited as PubChem BioAssay AID504764 (Drosophila RNAi Screening Center, 2011).
Purpose: 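Knock-downs that raise or lower a Notch target reporter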 (primary screen). Cells: Drosophila Kc167 cells. Reagents: long dsRNA against Drosophila genes. Duration: about 5 days (4 days dsRNA, then 24 h after transfection). Treatment: transfection of constitutively active membrane-tethered Notch lacking the extracellular domain, read 24 h later. Measured: 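Light from a Notch-responsive E(spl)m3 luciferase reporter under active Notch, with control-promoter and no-Notch reporter wells to normalise; raw counts from paired wells a and b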. Direction: induced reporter light, run 1, well a and induced reporter light, run 1, well b: higher = more light from the Notch target reporter with active Notch; control promoter light, run 1, well a and control promoter light, run 1, well b: higher = more light from the viral control promoter (cell number, transfection, viability); uninduced reporter light, run 1, well a: higher = more light from the Notch target reporter without active Notch. Hit rule: 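Hit if the duplicate-averaged log2 ratio of induced to control-promoter light gives a plate-wise z beyond ±2, or induced to uninduced beyond ±1.8; weak-control or discordant-duplicate wells dropped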. Meaning of the calls: active = modifier hit (raised or lowered Notch signal); inactive = not a hit.
The screen tested about 22,000 reagents; below is an unselected part of those that have a named target and a result. In the full data, 403 (1.9%) were called active. 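Unnormalised raw counts per well; ratio z-scores behind the hit calls and whether each hit raises or lowers signal are not deposited.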 Reagents against one gene are numbered here. A plus sign joins genes that one reagent is predicted to hit. No sequences are given here. Not given: the amount of reagent.

target | dsRNA no. | induced reporter light, run 1, well a | induced reporter light, run 1, well b | control promoter light, run 1, well a | control promoter light, run 1, well b | uninduced reporter light, run 1, well a | Outcome
LManIII | 1 | 94685 | 1.41e5 | 87590 | 1.09e5 | 19500 | inactive
CG30350 | 1 | 1.98e5 | 1.69e5 | 2.10e5 | 2.14e5 | 17000 | inactive
Dgat2 | 1 | 1.74e5 | 1.79e5 | 1.64e5 | 1.46e5 | 14950 | inactive
Obp57c | 1 | 1.14e5 | 1.20e5 | 1.21e5 | 1.41e5 | 9040 | inactive
HP1e | 1 | 77010 | 70670 | 77775 | 72400 | 6505 | inactive
Dhrs4 | 1 | 1.32e5 | 1.36e5 | 1.04e5 | 63995 | 10800 | inactive
mRpL15 | 1 | 84140 | 84135 | 61925 | 66895 | 7615 | inactive
CG12546 + CG14452 | 1 | 1.05e5 | 1.07e5 | 95635 | 81575 | 7440 | inactive
CG15715 | 1 | 1.82e5 | 1.64e5 | 1.79e5 | 1.97e5 | 10715 | inactive
CG2006 + Spase12 | 1 | 1.05e5 | 1.13e5 | 1.54e5 | 1.33e5 | 8840 | inactive
CG1271 | 1 | 1.03e5 | 1.18e5 | 1.37e5 | 38565 | 14185 | inactive
fd96Ca | 1 | 1.58e5 | 1.21e5 | 1.80e5 | 1.73e5 | 10410 | inactive
vnd | 1 | 82250 | 91455 | 1.08e5 | 1.26e5 | 7695 | inactive
vnd | 2 | 1.17e5 | 1.16e5 | 1.98e5 | 2.23e5 | 8838 | inactive
soti | 1 | 1.69e5 | 1.70e5 | 1.12e5 | 1.12e5 | 11012 | inactive
p38b | 1 | 1.50e5 | 1.50e5 | 1.39e5 | 1.76e5 | 10350 | inactive
trbl | 1 | 1.96e5 | 1.17e5 | 1.42e5 | 1.59e5 | 9040 | inactive
tbrd-1 | 1 | 1.94e5 | 1.70e5 | 2.36e5 | 1.89e5 | 14395 | inactive
FBXO11 | 1 | 99675 | 1.20e5 | 1.04e5 | 79740 | 7790 | inactive
CG42493 | 1 | 2.02e5 | 2.41e5 | 2.82e5 | 2.22e5 | 12810 | inactive
CG33784 | 1 | 1.78e5 | 1.43e5 | 2.00e5 | 1.10e5 | 11438 | inactive
Pepck1 | 1 | 28825 | 28470 | 25955 | 37495 | 2765 | inactive
CG32537 | 1 | 68960 | 62780 | 50855 | 30210 | 6670 | inactive

8 entries already listed, arranged by “control promoter light, run 1, well b”, ascending:
target | dsRNA no. | induced reporter light, run 1, well a | induced reporter light, run 1, well b | control promoter light, run 1, well a | control promoter light, run 1, well b | uninduced reporter light, run 1, well a | Outcome
CG1271 | 1 | 1.03e5 | 1.18e5 | 1.37e5 | 38565 | 14185 | inactive
soti | 1 | 1.69e5 | 1.70e5 | 1.12e5 | 1.12e5 | 11012 | inactive
vnd | 1 | 82250 | 91455 | 1.08e5 | 1.26e5 | 7695 | inactive
CG2006 + Spase12 | 1 | 1.05e5 | 1.13e5 | 1.54e5 | 1.33e5 | 8840 | inactive
trbl | 1 | 1.96e5 | 1.17e5 | 1.42e5 | 1.59e5 | 9040 | inactive
fd96Ca | 1 | 1.58e5 | 1.21e5 | 1.80e5 | 1.73e5 | 10410 | inactive
p38b | 1 | 1.50e5 | 1.50e5 | 1.39e5 | 1.76e5 | 10350 | inactive
vnd | 2 | 1.17e5 | 1.16e5 | 1.98e5 | 2.23e5 | 8838 | inactive

Further records:
target | dsRNA no. | induced reporter light, run 1, well a | induced reporter light, run 1, well b | control promoter light, run 1, well a | control promoter light, run 1, well b | uninduced reporter light, run 1, well a | Outcome
Hsp70Bc | 1 | 1.04e5 | 1.09e5 | 1.08e5 | 84920 | 5910 | inactive
CG31111 | 1 | 1.14e5 | 1.28e5 | 1.37e5 | 1.40e5 | 7915 | inactive
CG32652 (retired record) | 1 | 87570 | 75580 | 84220 | 72155 | 5220 | inactive
Membrin | 1 | 2.89e5 | 2.18e5 | 2.80e5 | 2.62e5 | 10635 | inactive
cal1 | 1 | 2.12e5 | 2.21e5 | 3.20e5 | 3.49e5 | 22060 | inactive
CG13062 | 1 | 1.85e5 | 1.75e5 | 2.01e5 | 1.67e5 | 7430 | inactive
PGRP-SC1b | 1 | 2.21e5 | 2.14e5 | 2.26e5 | 2.14e5 | 17780 | inactive
Nup75 | 1 | 43890 | 53180 | 69445 | 86270 | 3670 | inactive
CG1288 | 1 | 88780 | 93420 | 44730 | 47015 | 7085 | inactive
CG15390 | 1 | 1.29e5 | 1.22e5 | 83680 | 60680 | 8360 | inactive
aop | 1 | 3632 | 3760 | 6425 | 3985 | 2895 | inactive
COX6AL2 + Ir75d | 1 | 1.29e5 | 87980 | 1.28e5 | 1.03e5 | 9050 | inactive
CR18228 | 1 | 62315 | 60200 | 62475 | 44225 | 3740 | inactive
CG2218 | 1 | 1.91e5 | 2.46e5 | 2.86e5 | 2.53e5 | 15010 | inactive
Jon66Cii | 1 | 1.21e5 | 78660 | 81590 | 88695 | 5182 | inactive
spt4 | 1 | 2.24e5 | 1.84e5 | 1.87e5 | 2.12e5 | 21615 | inactive
Gr39b | 1 | 58065 | 68335 | 65245 | 75020 | 7655 | inactive
CG34428 | 1 | 1.18e5 | 1.50e5 | 1.79e5 | 1.52e5 | 6935 | inactive
CG15484 | 1 | 1.66e5 | 1.84e5 | 1.69e5 | 1.78e5 | 14145 | inactive
CG15484 | 2 | – | – | – | – | – | inactive
CG14000 | 1 | 1.51e5 | 1.04e5 | 1.33e5 | 1.21e5 | 9675 | inactive
CG7255 | 1 | 1.21e5 | 1.19e5 | 77615 | 1.02e5 | 9355 | inactive
CG8149 | 1 | 88180 | 88190 | 92880 | 64275 | 4540 | inactive
alphaTub85E | 1 | 48175 | 56615 | 55310 | 48355 | 4425 | inactive
PMCA | 1 | 69450 | 83540 | 1.00e5 | 98455 | 5920 | inactive
PMCA | 2 | 60085 | 52040 | 58490 | 54935 | 4982 | active
PMCA | 3 | 29610 | 31595 | 44235 | 43850 | 2720 | inactive
